Data on one compound can be found in patent US7531360B2, “Method of dechlorination treatment of flowing water, in particular upstream of a biological pollution detector” (Societe des Eaux de Marseille, priority 2005, dated 2009).

Bounds are passed on as bounds.

The series in a line: Effect of excess ascorbic acid on pH, dissolved oxygen and residual chlorine in artificially chlorinated distributed water. The source says: In order to ensure effective dechlorination, it is advantageous to control the system using a chlorine analyzer (a metering pump controlled by a chlorine analyzer). However, to avoid this metering pump control, it is possible to work with a slight excess of ascorbic acid. […] Experiments were thus carried out in this area on artificially chlorinated distributed water to verify these effects.
It should be noted that the pH still remains in a range favorable to the survival of trout fingerlings regardless of the initial pH of the distributed water.

As for `O=C1O[C@H]([C@@H](O)CO)C(O)=C1O` [ascorbic acid, L-ascorbic acid], the “Maximum decrease in pH of treated water” value (ascorbic acid concentration double with respect to stoichiometry) is listed as no more than 10%. The “Maximum decrease in dissolved oxygen” value (excess ascorbic acid, same conditions) is on record as no more than 10%.
